Consider 47 compounds from the supplement of paper PMC5770031.

Structures are written as SMILES. Some of the results follow. Single values are uncertain here, since repeats match poorly.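 Flies heterozygous for the ATM8 allele over a balancer chromosome carrying normal ATM were mated with each other on treated food. Parents laid eggs for 5–6 days and the young then developed for about 12 days, so both parents and larvae ate the compound. The read-out is the share of all emerged adults that carry two ATM8 copies, compared with 2% DMSO control vials. The paper called compounds neutral at 10–20% such offspring, harmful below 10%, and helpful above 20%.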 Peptide text beside a SMILES is read from it.

The test system of the assay is Drosophila melanogaster ATM8 (temperature-sensitive ATM allele). Kind of assay: fraction of eclosed F1 progeny that are homozygous ATM8 (rescue of developmental lethality); higher = more rescue of ATM8 developmental lethality; extreme values may be limits of the assay. The conditions noted are these: compound concentration applied to food 0.2 mM; 21 °C.
As for `COc1cccc(C=O)c1OC`, the “fraction of eclosed F1 progeny that are homozygous ATM8” value (“fraction” for short) is 0.268.

Turning to `COc1ccc2cc3[n+](cc2c1OC)CCc1cc2c(cc1-3)OCO2`, the “fraction” value amounted to 0.125.

Take `O=C(CCCN1CCC2(CC1)C(=O)NCN2c1ccccc1)c1ccc(F)cc1`: the “fraction” value was found to be 0.208.

On to `CC(C)Cn1c(=O)n(C)c(=O)c2nc[nH]c21`, for which the “fraction” value is 0.0727.

As for `COC(=O)C[C@H]1C(C)(C)C(=O)[C@@H]2CC3C4=CC(=O)O[C@@H](c5ccoc5)[C@]4(C)CC[C@@H]3[C@@]1(C)C2=O` (some centres not stated), the “fraction” value stood at 0.238.

`CC(C)=CC1C(C(=O)O)C1(C)C` (configuration not stated): the “fraction” value turned out to be 0.25.

As for `OCC(S)CS` (configuration not stated), the “fraction” value worked out at 0.0698.

In the case of `CN(C)CC(=O)OC[C@@H](O)[C@@H](O)[C@H](O)[C@@H](O)C(=O)O`, the “fraction” value was found to be 0.127.

`CC(C)(C)NCC(O)COc1cccc2c1CC(O)C(O)C2` (configuration not stated): the “fraction” value stood at 0.0545.

For the compound `Cc1cc(O)cc(O)c1C(=O)O`, the “fraction” value was 0.

As for `O=[N+]([O-])O[C@H]1CO[C@H]2[C@@H]1OC[C@H]2O[N+](=O)[O-]`, the “fraction” value is 0.0952.

Regarding `CC1=C(C(=O)O)N2C(=O)[C@@H](NC(=O)[C@H](N)c3ccccc3)[C@H]2SC1`, the “fraction” value came out at 0.0488.

Turning to `CC[C@H](C)C(=O)O[C@H]1C[C@H](O)C=C2C=C[C@H](C)[C@H](CC[C@@H](O)C[C@@H](O)CC(=O)O)[C@H]21`, the “fraction” value was determined as 0.

For the compound `NCC1(CC(=O)O)CCCCC1`, the “fraction” value amounted to 0.0172.

Take `COc1cc2ccc(=O)oc2c2ccoc12`: the “fraction” value came to 0.0385.

For `O=c1cccc2n1C[C@@H]1CNC[C@H]2C1`, the “fraction” value came out at 0.0889.

Consider `NC(=O)CC[C@H](NC(=O)[C@@H](N)CO)C(=O)O` (H-Ser-Gln-OH), for which the “fraction” value is 0.0976.

For `OCC(O)C(O)C(O)CO` (configuration not stated), the “fraction” value is 0.0811.

As for `CC[C@@]1(O)C(=O)OCc2c1cc1n(c2=O)Cc2cc3c(CN(C)C)c(O)ccc3nc2-1`, the “fraction” value came to 0.177.

`Nc1nc(=O)[nH]cc1F`: the “fraction” value was 0.323.

In the case of `O=C(O)/C=C(\CC(=O)O)C(=O)O`, the “fraction” value was found to be 0.179.

As to `Cc1c(C)c2c(c(C)c1O)CCC(C)(CCCC(C)CCCC(C)CCCC(C)C)O2` (stereo not drawn) [alpha-TOCHOPHEROL [4 mM]], the “fraction” value amounted to 0.0857.

On to `NC[C@H]1O[C@H](O[C@H]2[C@H](O)[C@@H](O[C@H]3O[C@H](CO)[C@@H](O)[C@H](N)[C@H]3O)[C@H](N)C[C@@H]2N)[C@H](N)[C@@H](O)[C@@H]1O`, for which the “fraction” value turned out to be 0.227.

`CCCC(=O)Nc1ccc(OCC(O)CNC(C)C)c(C(C)=O)c1` (configuration not stated): the “fraction” value amounted to 0.182.

`C[C@@H]1O[C@@H](OC[C@H]2O[C@@H](Oc3c(-c4ccc(O)c(O)c4)oc4cc(O)cc(O)c4c3=O)[C@H](O)[C@@H](O)[C@@H]2O)[C@H](O)[C@H](O)[C@H]1O`: the “fraction” value is 0.0588.

On to `CO/N=C(\C(=O)N[C@@H]1C(=O)N2C(C(=O)O)=C(CSC(=O)c3ccco3)CS[C@H]12)c1csc(N)n1`, for which the “fraction” value turned out to be 0.667.

On to `O=C(Nc1ccccc1)OCC(CN1CCCCC1)OC(=O)Nc1ccccc1` (configuration not stated), for which the “fraction” value amounted to 0.0667.

For `N=C(N)c1ccc(N=NNc2ccc(C(=N)N)cc2)cc1`, the “fraction” value came to 0.0303.

For `COc1c(O)cc(O)cc1O`, the “fraction” value was determined as 0.106.

`N[C@@H](CC(=O)N1CCn2c(nnc2C(F)(F)F)C1)Cc1cc(F)c(F)cc1F`: the “fraction” value worked out at 0.0357.

`COc1cc2c(cc1OC)Cc1cc(OC)c(OC)cc1Cc1cc(OC)c(OC)cc1C2`: the “fraction” value is 0.351.

Turning to `CCOC(=O)c1cncn1[C@H](C)c1ccccc1`, the “fraction” value came to 0.08.

As to `C[C@@H]1O[C@@H](O[C@H]2[C@H](Oc3cc(O)c4c(c3)O[C@H](c3ccc(O)cc3)CC4=O)O[C@H](CO)[C@@H](O)[C@@H]2O)[C@H](O)[C@H](O)[C@H]1O`, the “fraction” value came to 0.246.

With `C=COCC(F)(F)F`, the “fraction” value is 0.257.

For the compound `CC(=O)OCC(=O)[C@@]12OC3(CCCC3)O[C@@H]1C[C@H]1[C@@H]3CCC4=CC(=O)C=C[C@]4(C)[C@@]3(F)[C@@H](O)C[C@@]12C`, the “fraction” value stood at 0.192.

For `O=C(O)Cc1cc(I)c(Oc2ccc(O)c(I)c2)c(I)c1`, the “fraction” value came out at 0.156.

Turning to `CC(C)=CCC/C(C)=C\CO`, the “fraction” value was 0.2.

Consider `COCCCOc1ccnc(C[S+]([O-])c2nc3ccccc3[nH]2)c1C` (configuration not stated), for which the “fraction” value worked out at 0.162.

As to `COc1cc(C(C)=O)cc(OC)c1O`, the “fraction” value worked out at 0.2.

Consider `CNCC[C@@H](Oc1ccccc1C)c1ccccc1`, for which the “fraction” value was determined as 0.353.

For `Cc1ccc(C(=O)C(C)CN2CCCCC2)cc1` (configuration not stated), the “fraction” value was 0.0508.

For the compound `O=C(CCCCC(=O)Nc1c(I)cc(I)c(C(=O)O)c1I)Nc1c(I)cc(I)c(C(=O)O)c1I`, the “fraction” value is 0.106.

For `O=C(O)/C=C/C=C/c1ccccc1`, the “fraction” value was found to be 0.111.

As for `CCCc1nc2c(C)cc(-c3nc4ccccc4n3C)cc2n1Cc1ccc(-c2ccccc2C(=O)O)cc1`, the “fraction” value amounted to 0.26.

On to `COCCCOc1cc(C[C@@H](C[C@H](N)[C@@H](O)C[C@H](C(=O)NCC(C)(C)C(N)=O)C(C)C)C(C)C)ccc1OC`, for which the “fraction” value amounted to 0.0411.

As to `CCCCOC(=O)c1ccc(O)cc1`, the “fraction” value is 0.116.

`C#C[C@]1(OC(C)=O)CC[C@H]2[C@@H]3CCC4=CC(=O)CC[C@@H]4[C@H]3CC[C@@]21C`: the “fraction” value is 0.0784.
